PubChem BioAssay AID504774, Drosophila RNAi Screening Center, 2011
In all, the deposit lists about 23,000 reagents; shown is a random part of those with a known target gene and a result. 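Values are quantile-normalised luminescence on an arbitrary scale; higher means more cells surviving MMS.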 Names joined by + are all predicted targets of the reagent.

- Assay: 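Fly genes whose loss alters survival after alkylation damage to DNA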 (primary screen)
- System: Drosophila Kc167 cells
- Knock-down reagent: long dsRNA against Drosophila genes, about 0.25 µg dsRNA per well
- Time to read-out: about 6 days: 3 days knock-down, then 3 days with or without MMS
- Challenge: methyl methanesulphonate 0.004% (w/v) for 3 days after knock-down
- Measured: 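ATP-dependent luminescence as a measure of live cells in MMS-exposed wells, quantile normalised within each plate, with replicate values also given as a mean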
- Scale: mean viability with MMS and viability with MMS: higher = more surviving cells after MMS

| Gene | DRSC id | mean viability with MMS | viability with MMS, replicate 1 | viability with MMS, replicate 2 |
| --- | --- | --- | --- | --- |
| mRpS21 (mitochondrial ribosomal protein S21) | DRSC12965 | 3.74e6 | 4.17e6 | 4.16e6 |
| mRpS21 (mitochondrial ribosomal protein S21) | DRSC21357 | 3.69e6 | 4.24e6 | 4.08e6 |
| shf (shifted) | DRSC18283 | 3.54e6 | 3.95e6 | 4.10e6 |
| Trf4-1 (Topoisomerase related function 4-1) | DRSC17775 | 3.47e6 | 3.93e6 | 3.96e6 |
| cato (cousin of atonal) | DRSC07589 | 3.54e6 | 3.95e6 | 4.07e6 |
| CG8500 | DRSC16434 | 3.50e6 | 3.99e6 | 3.98e6 |
| kay (kayak) | DRSC13962 | 3.42e6 | 3.90e6 | 3.84e6 |
| kay (kayak) | DRSC15048 | 3.14e6 | 3.58e6 | 3.57e6 |
| kay (kayak) | DRSC16977 | 3.35e6 | 3.81e6 | 3.82e6 |
| CG13685 | DRSC10043 | 3.49e6 | 3.96e6 | 3.97e6 |
| l(2)efl (lethal (2) essential for life) | DRSC04698 | 3.63e6 | 3.86e6 | 4.07e6 |
| CG11368 | DRSC17778 | 3.39e6 | 3.83e6 | 3.84e6 |
| Sbp2 (SECIS-binding protein 2) | DRSC10766 | 3.60e6 | 4.10e6 | 4.06e6 |
| sona (sol narae) | DRSC04089 | 3.53e6 | 4.00e6 | 4.01e6 |
| sona (sol narae) | DRSC04574 | 3.28e6 | 3.76e6 | 3.55e6 |
| sona (sol narae) | DRSC04575 | 3.43e6 | 3.92e6 | 3.84e6 |
| CHES-1-like (Checkpoint suppressor 1-like) | DRSC18447 | 3.50e6 | 3.76e6 | 4.20e6 |
| Hand | DRSC02656 | 3.78e6 | 4.29e6 | 4.31e6 |
| PNUTS (Phosphatase 1 nuclear targeting subunit) | DRSC00638 | 3.45e6 | 3.69e6 | 4.05e6 |
| PNUTS (Phosphatase 1 nuclear targeting subunit) | DRSC22136 | 3.52e6 | 3.97e6 | 4.02e6 |
| Adk1 (Adenosine kinase 1) | DRSC15514 | 3.48e6 | 3.98e6 | 3.94e6 |
| CG17294 | DRSC02596 | 3.48e6 | 4.08e6 | 3.77e6 |
| sav (salvador) | DRSC14681 | 3.57e6 | 4.04e6 | 4.05e6 |
| sav (salvador) | DRSC14682 | 3.60e6 | 4.08e6 | 4.08e6 |
| CG31815 | DRSC01548 | 3.50e6 | 3.96e6 | 4.00e6 |
| CtsK1 (Cathepsin K1) | DRSC08742 | 3.37e6 | 3.74e6 | 3.83e6 |
| CG1620 | DRSC06603 | 3.12e6 | 2.55e6 | 3.94e6 |
| sol (small optic lobes) | DRSC20587 | 3.68e6 | 4.19e6 | 4.07e6 |
| fsd (fates-shifted) | DRSC06166 | 3.73e6 | 4.03e6 | 4.30e6 |
| synr (sayonara) | DRSC02369 | 3.67e6 | 4.20e6 | 4.07e6 |
| CG34426 | DRSC09977 | 3.48e6 | 4.00e6 | 3.90e6 |
| CG2812 | DRSC04319 | 3.59e6 | 4.09e6 | 4.05e6 |
| Idgf4 (Imaginal disc growth factor 4) | DRSC18675 | 3.52e6 | 4.04e6 | 3.93e6 |
| pinta | DRSC14698 | 3.49e6 | 4.02e6 | 3.91e6 |
| NimC2 (Nimrod C2) | DRSC01881 | 3.62e6 | 4.04e6 | 4.15e6 |
| CG10663 | DRSC09770 | 3.31e6 | 3.70e6 | 3.72e6 |
| CG15435 | DRSC00450 | 3.34e6 | 3.83e6 | 3.66e6 |
| cyc (cycle) | DRSC11337 | 3.54e6 | 4.08e6 | 3.95e6 |
| CG9451 | DRSC11074 | 3.48e6 | 3.84e6 | 4.02e6 |
| Muc96D (Mucin 96D) | DRSC13709 | 3.58e6 | 4.09e6 | 4.03e6 |
| Muc96D (Mucin 96D) | DRSC21609 | 3.78e6 | 4.29e6 | 4.24e6 |
| Muc96D (Mucin 96D) | DRSC23213 | 3.49e6 | 3.97e6 | 4.00e6 |
| Ns4 (Nucleostemin 4) | DRSC03199 | 3.44e6 | 3.81e6 | 4.01e6 |
| Ctr1A (Copper transporter 1A) | DRSC18336 | 3.54e6 | 3.99e6 | 4.04e6 |
| Gr64d + Gr64e | DRSC08446 | 3.53e6 | 3.99e6 | 3.93e6 |
| RluA-1 (RluA pseudouridine synthase 1) | DRSC02240 | 3.51e6 | 3.86e6 | 4.12e6 |
| RluA-1 (RluA pseudouridine synthase 1) | DRSC03060 | 3.48e6 | 4.00e6 | 3.89e6 |
| CG30378 | DRSC05071 | 3.42e6 | 3.97e6 | 3.74e6 |
| beta-PheRS (Phenylalanyl-tRNA synthetase, beta-subunit) | DRSC15859 | 3.39e6 | 3.91e6 | 3.78e6 |
| mdu (meduse) | DRSC19860 | 2.88e6 | 3.60e6 | 3.62e6 |
| mdu (meduse) | DRSC23192 | 3.88e6 | 4.29e6 | 4.48e6 |
| Sas-6 (Spindle assembly abnormal 6) | DRSC15061 | 3.68e6 | 4.11e6 | 4.22e6 |
| ppk26 (pickpocket 26) | DRSC10991 | 3.59e6 | 4.17e6 | 3.99e6 |
| Eip74EF (Ecdysone-induced protein 74EF) | DRSC10613 | 2.97e6 | 3.57e6 | 3.63e6 |
| Eip74EF (Ecdysone-induced protein 74EF) | DRSC11160 | 3.48e6 | 3.94e6 | 3.92e6 |
| mRpL44 (mitochondrial ribosomal protein L44) | DRSC12306 | 3.67e6 | 4.19e6 | 4.16e6 |
| Obp56b (Odorant-binding protein 56b) | DRSC06551 | 3.39e6 | 3.83e6 | 3.80e6 |
| ND-B14.5AL (NADH dehydrogenase (ubiquinone) B14.5 A subunit-like) | DRSC11795 | 3.37e6 | 3.89e6 | 3.70e6 |
| CG11353 | DRSC08182 | 3.53e6 | 4.01e6 | 3.99e6 |
| CG5757 | DRSC06951 | 3.51e6 | 3.83e6 | 4.12e6 |
| CG15715 | DRSC10216 | 3.49e6 | 4.00e6 | 3.88e6 |
| Cpr47Eg (Cuticular protein 47Eg) | DRSC07330 | 3.50e6 | 4.04e6 | 3.80e6 |
| CG10081 | DRSC05962 | 3.49e6 | 3.82e6 | 4.08e6 |
| okr (okra) | DRSC00834 | 3.51e6 | 3.94e6 | 3.99e6 |
| CG2540 | DRSC19856 | 3.50e6 | 3.85e6 | 3.88e6 |
| CG15712 | DRSC06583 | 3.82e6 | 4.33e6 | 4.21e6 |
| CG42376 + cin | DRSC18752 | 3.55e6 | 4.13e6 | 3.94e6 |
| Hinfp (Histone H4 transcription factor) | DRSC18484 | 3.51e6 | 3.99e6 | 3.99e6 |

Sorted by “viability with MMS, replicate 2” (high to low): some entries from above.
| Gene | DRSC id | mean viability with MMS | viability with MMS, replicate 1 | viability with MMS, replicate 2 |
| --- | --- | --- | --- | --- |
| CG5757 | DRSC06951 | 3.51e6 | 3.83e6 | 4.12e6 |
| CG11353 | DRSC08182 | 3.53e6 | 4.01e6 | 3.99e6 |
| CG15715 | DRSC10216 | 3.49e6 | 4.00e6 | 3.88e6 |
| Obp56b (Odorant-binding protein 56b) | DRSC06551 | 3.39e6 | 3.83e6 | 3.80e6 |
| ND-B14.5AL (NADH dehydrogenase (ubiquinone) B14.5 A subunit-like) | DRSC11795 | 3.37e6 | 3.89e6 | 3.70e6 |
